Data as given in the supplement of paper PMC12067093, “Discovery and optimisation of a covalent ligand for TRIM25 and its application to targeted protein ubiquitination” (Chemical Science, 2025).
The list shows a part of the results.

Chains of the proteins cited; added tags and fusions are not shown. Lines headed by an entry give the natural chain unless they say otherwise; changes in a name come on top.
UniProt Q8WUH1: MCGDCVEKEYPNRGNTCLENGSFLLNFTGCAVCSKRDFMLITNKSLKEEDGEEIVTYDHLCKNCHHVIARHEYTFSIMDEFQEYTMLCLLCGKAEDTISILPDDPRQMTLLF
UniProt Q9Y696: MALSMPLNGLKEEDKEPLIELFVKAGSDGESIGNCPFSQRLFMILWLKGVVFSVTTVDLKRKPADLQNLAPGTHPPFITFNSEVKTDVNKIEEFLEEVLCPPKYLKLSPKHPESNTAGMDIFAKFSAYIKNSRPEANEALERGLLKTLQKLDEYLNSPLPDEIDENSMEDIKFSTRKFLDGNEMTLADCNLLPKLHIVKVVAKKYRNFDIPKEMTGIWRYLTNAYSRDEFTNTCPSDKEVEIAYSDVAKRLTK
UniProt Q9Y6A4: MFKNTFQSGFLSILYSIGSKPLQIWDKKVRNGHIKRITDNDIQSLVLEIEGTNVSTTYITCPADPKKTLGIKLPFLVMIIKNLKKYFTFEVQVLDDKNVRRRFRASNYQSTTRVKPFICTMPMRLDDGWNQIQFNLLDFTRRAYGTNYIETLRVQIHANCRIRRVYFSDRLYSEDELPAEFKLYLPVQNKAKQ
UniProt Q8WVB6, whole entry, looked up: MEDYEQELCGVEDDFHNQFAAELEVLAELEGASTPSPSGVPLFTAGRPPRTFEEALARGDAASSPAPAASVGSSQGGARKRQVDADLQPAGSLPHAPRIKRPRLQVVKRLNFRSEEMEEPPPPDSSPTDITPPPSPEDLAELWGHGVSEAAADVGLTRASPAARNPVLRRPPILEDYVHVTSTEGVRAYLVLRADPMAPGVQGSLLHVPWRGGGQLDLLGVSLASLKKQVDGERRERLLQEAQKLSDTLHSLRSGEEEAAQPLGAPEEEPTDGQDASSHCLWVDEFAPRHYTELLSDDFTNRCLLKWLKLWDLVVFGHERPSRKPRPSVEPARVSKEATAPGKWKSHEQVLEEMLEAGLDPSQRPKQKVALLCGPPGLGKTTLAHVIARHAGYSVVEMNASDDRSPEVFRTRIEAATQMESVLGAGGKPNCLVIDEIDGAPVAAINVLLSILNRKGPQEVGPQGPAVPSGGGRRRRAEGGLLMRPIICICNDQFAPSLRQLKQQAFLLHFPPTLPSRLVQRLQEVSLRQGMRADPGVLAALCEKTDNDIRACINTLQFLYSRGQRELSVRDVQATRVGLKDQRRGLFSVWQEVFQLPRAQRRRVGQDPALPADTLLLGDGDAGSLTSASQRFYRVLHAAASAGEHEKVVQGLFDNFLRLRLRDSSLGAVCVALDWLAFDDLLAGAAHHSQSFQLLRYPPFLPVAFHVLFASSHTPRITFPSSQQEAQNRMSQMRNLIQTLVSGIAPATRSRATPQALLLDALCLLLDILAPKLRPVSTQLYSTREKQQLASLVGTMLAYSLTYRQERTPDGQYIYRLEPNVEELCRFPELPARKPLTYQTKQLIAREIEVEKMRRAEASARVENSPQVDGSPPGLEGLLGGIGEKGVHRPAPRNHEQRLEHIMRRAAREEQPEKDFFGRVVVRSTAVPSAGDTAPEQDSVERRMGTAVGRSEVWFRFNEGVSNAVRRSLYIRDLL
UniProt Q13111, whole entry, looked up: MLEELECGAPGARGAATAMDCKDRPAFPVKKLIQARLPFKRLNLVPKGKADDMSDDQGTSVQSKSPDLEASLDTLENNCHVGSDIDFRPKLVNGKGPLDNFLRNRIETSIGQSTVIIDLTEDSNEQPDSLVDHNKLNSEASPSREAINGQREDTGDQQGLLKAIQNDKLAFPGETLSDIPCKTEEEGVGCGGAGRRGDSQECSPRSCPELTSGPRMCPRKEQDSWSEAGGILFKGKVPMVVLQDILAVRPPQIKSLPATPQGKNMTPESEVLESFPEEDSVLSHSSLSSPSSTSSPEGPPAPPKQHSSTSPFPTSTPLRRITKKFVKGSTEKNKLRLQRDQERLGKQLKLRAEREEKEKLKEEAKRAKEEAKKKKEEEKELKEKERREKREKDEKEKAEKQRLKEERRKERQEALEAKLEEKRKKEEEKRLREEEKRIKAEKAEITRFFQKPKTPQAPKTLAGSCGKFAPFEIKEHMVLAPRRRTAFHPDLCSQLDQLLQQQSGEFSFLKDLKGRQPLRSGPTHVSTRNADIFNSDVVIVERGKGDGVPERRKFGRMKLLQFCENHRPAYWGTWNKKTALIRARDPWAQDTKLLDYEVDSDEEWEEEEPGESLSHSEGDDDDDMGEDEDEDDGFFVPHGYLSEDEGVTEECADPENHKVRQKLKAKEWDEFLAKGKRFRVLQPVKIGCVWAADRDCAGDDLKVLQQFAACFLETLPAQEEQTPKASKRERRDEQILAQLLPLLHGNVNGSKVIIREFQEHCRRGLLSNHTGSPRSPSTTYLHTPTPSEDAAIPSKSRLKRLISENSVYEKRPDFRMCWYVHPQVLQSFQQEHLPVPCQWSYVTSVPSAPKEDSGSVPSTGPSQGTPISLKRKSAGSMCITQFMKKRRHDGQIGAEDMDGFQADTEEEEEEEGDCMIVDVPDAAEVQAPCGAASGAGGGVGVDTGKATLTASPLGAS
UniProt P23528, whole entry, looked up: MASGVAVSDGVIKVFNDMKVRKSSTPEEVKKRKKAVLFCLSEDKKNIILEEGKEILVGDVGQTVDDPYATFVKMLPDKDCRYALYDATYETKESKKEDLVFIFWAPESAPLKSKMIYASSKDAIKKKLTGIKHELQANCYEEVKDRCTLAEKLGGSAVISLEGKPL
UniProt Q00610: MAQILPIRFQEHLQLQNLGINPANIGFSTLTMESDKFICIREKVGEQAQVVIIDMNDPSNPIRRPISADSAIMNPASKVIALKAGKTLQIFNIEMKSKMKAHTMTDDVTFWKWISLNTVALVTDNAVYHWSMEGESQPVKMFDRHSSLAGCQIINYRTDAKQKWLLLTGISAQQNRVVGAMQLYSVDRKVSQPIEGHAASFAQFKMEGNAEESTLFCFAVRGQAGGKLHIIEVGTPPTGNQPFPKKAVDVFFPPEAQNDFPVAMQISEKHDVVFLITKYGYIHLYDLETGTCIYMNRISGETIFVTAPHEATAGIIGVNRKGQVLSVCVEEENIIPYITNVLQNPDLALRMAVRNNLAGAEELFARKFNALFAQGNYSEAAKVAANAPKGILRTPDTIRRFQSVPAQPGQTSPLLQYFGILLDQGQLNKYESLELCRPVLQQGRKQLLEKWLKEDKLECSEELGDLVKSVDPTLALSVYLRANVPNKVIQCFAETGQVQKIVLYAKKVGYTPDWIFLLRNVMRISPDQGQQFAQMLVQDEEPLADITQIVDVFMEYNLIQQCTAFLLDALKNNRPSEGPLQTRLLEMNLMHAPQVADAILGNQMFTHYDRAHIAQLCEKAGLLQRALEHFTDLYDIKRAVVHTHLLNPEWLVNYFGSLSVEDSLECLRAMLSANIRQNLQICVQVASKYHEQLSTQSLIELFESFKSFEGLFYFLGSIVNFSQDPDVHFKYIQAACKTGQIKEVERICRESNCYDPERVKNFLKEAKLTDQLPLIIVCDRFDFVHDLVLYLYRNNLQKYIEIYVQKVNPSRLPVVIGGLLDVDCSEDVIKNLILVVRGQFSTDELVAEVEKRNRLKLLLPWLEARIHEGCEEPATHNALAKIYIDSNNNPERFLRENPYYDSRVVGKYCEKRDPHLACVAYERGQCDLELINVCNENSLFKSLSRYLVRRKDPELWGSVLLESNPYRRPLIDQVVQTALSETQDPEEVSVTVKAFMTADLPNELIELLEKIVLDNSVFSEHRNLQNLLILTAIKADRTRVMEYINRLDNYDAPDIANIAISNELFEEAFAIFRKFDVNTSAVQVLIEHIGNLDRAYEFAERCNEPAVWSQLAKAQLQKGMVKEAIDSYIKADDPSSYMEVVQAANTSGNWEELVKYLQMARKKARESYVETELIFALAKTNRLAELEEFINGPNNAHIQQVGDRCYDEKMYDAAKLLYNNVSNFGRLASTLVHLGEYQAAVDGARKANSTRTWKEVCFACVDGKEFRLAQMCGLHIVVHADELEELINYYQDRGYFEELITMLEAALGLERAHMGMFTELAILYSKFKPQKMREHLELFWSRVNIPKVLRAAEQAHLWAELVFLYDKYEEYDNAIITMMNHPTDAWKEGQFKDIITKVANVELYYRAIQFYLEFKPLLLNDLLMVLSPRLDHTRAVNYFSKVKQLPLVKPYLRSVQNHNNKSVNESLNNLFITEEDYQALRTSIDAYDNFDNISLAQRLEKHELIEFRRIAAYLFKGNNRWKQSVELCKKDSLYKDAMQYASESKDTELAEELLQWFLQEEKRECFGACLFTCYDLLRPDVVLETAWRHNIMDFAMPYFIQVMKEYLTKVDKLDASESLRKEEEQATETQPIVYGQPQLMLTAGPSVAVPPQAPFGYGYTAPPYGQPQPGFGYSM
UniProt Q9UHD1: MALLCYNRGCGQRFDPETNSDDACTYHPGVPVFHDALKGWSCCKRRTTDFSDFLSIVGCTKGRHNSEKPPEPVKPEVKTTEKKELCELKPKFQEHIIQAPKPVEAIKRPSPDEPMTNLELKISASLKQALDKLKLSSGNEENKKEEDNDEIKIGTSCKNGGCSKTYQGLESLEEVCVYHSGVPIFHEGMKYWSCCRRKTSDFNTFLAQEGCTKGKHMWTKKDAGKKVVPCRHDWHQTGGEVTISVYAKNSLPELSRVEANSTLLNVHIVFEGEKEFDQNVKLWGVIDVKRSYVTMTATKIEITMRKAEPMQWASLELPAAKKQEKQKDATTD
UniProt O75122: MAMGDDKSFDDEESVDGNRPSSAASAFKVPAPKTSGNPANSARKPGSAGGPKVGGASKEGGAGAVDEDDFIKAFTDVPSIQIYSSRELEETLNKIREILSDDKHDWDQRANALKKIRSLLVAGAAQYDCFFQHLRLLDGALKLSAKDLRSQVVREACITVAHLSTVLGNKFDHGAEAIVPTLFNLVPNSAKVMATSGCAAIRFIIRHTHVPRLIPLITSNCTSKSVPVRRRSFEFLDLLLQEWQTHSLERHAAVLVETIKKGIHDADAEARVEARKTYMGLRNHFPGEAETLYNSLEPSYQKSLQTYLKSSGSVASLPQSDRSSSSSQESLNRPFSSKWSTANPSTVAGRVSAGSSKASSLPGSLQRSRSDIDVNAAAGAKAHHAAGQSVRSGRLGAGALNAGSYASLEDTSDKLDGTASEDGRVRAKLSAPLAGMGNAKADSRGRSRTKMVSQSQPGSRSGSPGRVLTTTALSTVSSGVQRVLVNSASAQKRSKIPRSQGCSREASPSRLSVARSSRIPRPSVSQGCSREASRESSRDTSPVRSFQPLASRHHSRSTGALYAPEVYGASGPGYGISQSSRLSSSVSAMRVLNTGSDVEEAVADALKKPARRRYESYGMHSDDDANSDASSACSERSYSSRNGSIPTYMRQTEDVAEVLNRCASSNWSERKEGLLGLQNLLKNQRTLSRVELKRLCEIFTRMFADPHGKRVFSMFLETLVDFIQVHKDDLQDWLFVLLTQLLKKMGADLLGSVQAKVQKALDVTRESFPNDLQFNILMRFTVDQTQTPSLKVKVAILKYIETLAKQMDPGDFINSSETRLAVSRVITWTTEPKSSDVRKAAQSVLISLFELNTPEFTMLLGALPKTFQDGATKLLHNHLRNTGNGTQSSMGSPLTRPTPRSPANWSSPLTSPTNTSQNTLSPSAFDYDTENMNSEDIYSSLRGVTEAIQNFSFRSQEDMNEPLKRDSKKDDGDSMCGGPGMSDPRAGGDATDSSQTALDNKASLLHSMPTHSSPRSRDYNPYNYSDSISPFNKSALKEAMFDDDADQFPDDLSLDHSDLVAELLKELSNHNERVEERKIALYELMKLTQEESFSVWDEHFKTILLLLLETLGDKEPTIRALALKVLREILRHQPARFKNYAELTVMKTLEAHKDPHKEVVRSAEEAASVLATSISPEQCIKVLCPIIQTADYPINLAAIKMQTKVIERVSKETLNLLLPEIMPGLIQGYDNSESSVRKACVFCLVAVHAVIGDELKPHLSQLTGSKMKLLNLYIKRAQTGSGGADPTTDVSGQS
UniProt P0C7P0: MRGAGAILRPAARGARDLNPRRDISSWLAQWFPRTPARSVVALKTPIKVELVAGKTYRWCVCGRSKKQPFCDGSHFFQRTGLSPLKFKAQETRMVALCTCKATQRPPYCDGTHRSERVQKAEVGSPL
UniProt Q9UFW8: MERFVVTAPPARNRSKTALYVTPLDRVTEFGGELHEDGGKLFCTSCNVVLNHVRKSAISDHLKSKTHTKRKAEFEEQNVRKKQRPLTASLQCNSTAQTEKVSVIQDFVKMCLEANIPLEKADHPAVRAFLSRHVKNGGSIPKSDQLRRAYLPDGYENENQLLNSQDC
UniProt O76071: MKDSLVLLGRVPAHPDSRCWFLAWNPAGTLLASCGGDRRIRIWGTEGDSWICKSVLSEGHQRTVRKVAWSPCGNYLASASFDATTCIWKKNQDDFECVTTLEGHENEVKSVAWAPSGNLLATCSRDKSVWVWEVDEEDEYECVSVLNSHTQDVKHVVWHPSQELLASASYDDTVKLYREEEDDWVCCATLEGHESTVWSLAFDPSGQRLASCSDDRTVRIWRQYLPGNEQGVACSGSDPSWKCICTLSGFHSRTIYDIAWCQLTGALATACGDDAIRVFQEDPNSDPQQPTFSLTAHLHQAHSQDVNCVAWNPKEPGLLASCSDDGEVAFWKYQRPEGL

Compound: CC1Cc2ccccc2N1C(=O)C1CCCN(C1)C(=O)CCl (mixture of isomers) [TRIM25 ligand 11 (diastereomer mixture)]
Test: probe-labelled cysteine peptide fold change vs DMSO (competition) (log2 fold change); higher = less target engagement (more negative = stronger competition)
Details: 50 µM; THP-1; incubation time: 4 h
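Note: competitive chemoproteomic profiling in live THP-1 cells with an iodoacetamide desthiobiotin (IA-DTB) probe, comparing probe-labelled peptide intensities in compound-treated cells against DMSO-treated controls.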

Target | probe-labelled cysteine peptide fold change
CHURC1_Q8WUH1_44+60_GNTCLENGSFLLNFTGCAVCSK (UniProt Q8WUH1) | -0.0259
CLIC4_Q9Y696_234_DEFTNTCPSDK (UniProt Q9Y696) | -0.00675
CIT_O14578_1688_GCHLFGAGK (UniProt O14578) | 0.0596
CKAP5_Q14008_1500_CEMPELVQHK (UniProt Q14008) | -0.166
CLEC16A_Q2KHT3_566_LATLELSCLLLK (UniProt Q2KHT3) | 0.129
CFAP20_Q9Y6A4_160_VQIHANCR (UniProt Q9Y6A4) | 0.19
CISD2_Q8N5K1_110_TFPACDGSHNK (UniProt Q8N5K1) | -0.153
CHTF18_Q8WVB6_825_LEPNVEELCRFPELPAR (UniProt Q8WVB6) | -0.102
CHAF1A_Q13111_710_VLQQFAACFLETLPAQEEQTPK (UniProt Q13111) | 0.0536
CHAF1B_Q13112_191_SYVQGVTWDPLGQYVATLSCDR (UniProt Q13112) | 0.00625
CFL1_P23528_139_KLTGIKHELQANCYEEVK (UniProt P23528) | -0.503
CHCHD3_Q9NX63_204_CSALATQYMHCVNHAK (UniProt Q9NX63) | 0.0693
CLSPN_Q9HAW4_397_ETQIITGSDESCR (UniProt Q9HAW4) | -0.301
CHD1_O14646_502_GNSCILADEMGLGK (UniProt O14646) | 0.0867
CLTC_Q00610_753_ESNCYDPER (UniProt Q00610) | -0.0731
CHD1_O14646_1417_TFSICK (UniProt O14646) | 0.0405
CIC_Q96RK0_336_APGSSSCGAER (UniProt Q96RK0) | -0.168
CLTC_Q00610_491_VIQCFAETGQVQK (UniProt Q00610) | 0.0523
CHORDC1_Q9UHD1_59_TTDFSDFLSIVGCTK (UniProt Q9UHD1) | -0.115
CLASP1_Q7Z460_1212_ECDIVSR (UniProt Q7Z460) | -0.0939

An excerpt of these results, tab-delimited.
Target	probe-labelled cysteine peptide fold change
CLTC_Q00610_753_ESNCYDPER (UniProt Q00610)	-0.0731
CHD1_O14646_1417_TFSICK (UniProt O14646)	0.0405

The list continues:

Target | probe-labelled cysteine peptide fold change
CHD8_Q9HCK8_680_NYSYLHCEWATISQLEK (UniProt Q9HCK8) | 0.03
CLASP2_O75122_976_KDDGDSMCGGPGMSDPR (UniProt O75122) | -0.481
CKAP5_Q14008_1026_STPTDLILCVPHLYSCLEDR (UniProt Q14008) | 0.0263
CIT_O14578_1655_ALCLVDVKK (UniProt O14578) | -0.00528
CHD7_Q9P2D1_1101_CVVIDEAHR (UniProt Q9P2D1) | 0.0113
CHAF1A_Q13111_465_TLAGSCGK (UniProt Q13111) | -0.234
CHORDC1_Q9UHD1_176_TYQGLESLEEVCVYHSGVPIFHEGMK (UniProt Q9UHD1) | -0.024
CHORDC1_Q9UHD1_24_FDPETNSDDACTYHPGVPVFHDALK (UniProt Q9UHD1) | -0.11
CISD3_P0C7P0_98_MVALCTCK (UniProt P0C7P0) | -0.00501
CHD2_O14647_500_DYQLEGLNWLAHSWCK (UniProt O14647) | 0.087
CHORDC1_Q9UHD1_59_RTTDFSDFLSIVGCTK (UniProt Q9UHD1) | -0.21
CHD1_O14646_376_NASPEDVEYYNCQQELTDDLHK (UniProt O14646) | -0.0871
CHI3L1_P36222_300_EAGTLAYYEICDFLR (UniProt P36222) | 0.202
CIP2A_Q8TCG1_358_WLSQPLDGSENCSVLALELFK (UniProt Q8TCG1) | 0.23
CHCHD5_Q9BSY4_22_ELEQYGQCVAAKPESWQR (UniProt Q9BSY4) | 0.2
CLASP2_O75122_502_SQGCSR (UniProt O75122) | -0.166
CHTF18_Q8WVB6_373_VALLCGPPGLGK (UniProt Q8WVB6) | 0.138
CGGBP1_Q9UFW8_43_LFCTSCNVVLNHVR (UniProt Q9UFW8) | 0.128
CIAO1_O76071_34_CWFLAWNPAGTLLASCGGDRR (UniProt O76071) | -0.171
